Assay results taken from patent US10322161B2, “EPHA4 cyclic peptide antagonists for neuroprotection and neural repair” (Sanford Burnham Prebys Medical Discovery Institute, priority 2014, dated 2019).
For some assays here: Part of at least one peptide drawing is inferred or uncertain, most often the ends. For some assays here: For at least one compound, name, drawing or mass did not settle the structure. Ends that are not written are not given here. Peptide text beside a SMILES is read from it.

The chains behind the UniProt entries cited, without tags or fusion partners. Residues count along the entry.
UniProt Q03137, 20-547 limits assumed: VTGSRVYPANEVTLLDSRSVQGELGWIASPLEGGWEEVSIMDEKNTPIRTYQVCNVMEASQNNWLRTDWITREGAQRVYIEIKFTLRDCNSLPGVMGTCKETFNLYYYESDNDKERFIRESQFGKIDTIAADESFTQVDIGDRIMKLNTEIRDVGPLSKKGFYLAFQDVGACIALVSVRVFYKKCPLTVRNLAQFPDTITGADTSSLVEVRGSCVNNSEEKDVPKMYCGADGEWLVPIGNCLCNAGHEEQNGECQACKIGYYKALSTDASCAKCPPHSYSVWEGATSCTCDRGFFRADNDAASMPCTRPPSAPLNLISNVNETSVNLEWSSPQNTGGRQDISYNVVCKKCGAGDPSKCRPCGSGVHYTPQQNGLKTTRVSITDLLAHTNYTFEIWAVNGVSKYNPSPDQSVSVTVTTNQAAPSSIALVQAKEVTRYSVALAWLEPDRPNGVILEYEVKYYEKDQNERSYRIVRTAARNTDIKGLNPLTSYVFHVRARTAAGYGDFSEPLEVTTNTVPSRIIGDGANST

Experiments:
EphA4 = target: T1, EphA4 (Mus musculus, UniProt Q03137); test: ELISA, inhibition of ephrin-A5 AP binding to immobilized EphA4 Fc; settings: read-out: IC50 ± SE (n) by ELISA
T1 construct: mouse EphA4 ectodomain fused to Fc; purchased R&D Systems

ALS pathogenesis = settings: rat SOD1 G93A; cited from earlier work
[1] = tested on: EphA4-dependent growth cone collapse; settings: nasal retinal explants, prior knowledge; cited from earlier work
spinal cord injury = settings: rat; cited from earlier work

| Compound | IC50 (EphA4) | effect on ALS pathogenesis (ALS pathogenesis) | concentration that blocks ephrin-A5-induced collapse [1] | axon sprouting and limb function (spinal cord injury) |
| --- | --- | --- | --- | --- |
| CC(=O)N1CCC[C@H]1C(=O)N[C@@H](Cc1ccc(O)cc1)C(=O)N[C@H]1CSSC[C@@H](C(N)=O)NC(=O)[C@H](CO)NC(=O)[C@H](Cc2c[nH]c3ccccc23)NC(=O)[C@H](CO)NC(=O)CNC(=O)[C@H](CCCNC(=N)N)NC(=O)[C@H](Cc2ccc(O)cc2)NC(=O)[C@H](C(C)C)NC1=O [ac.PY.am] (HELM PEPTIDE1{[ac].P.Y.C.V.Y.R.G.S.W.S.C.[am]}$PEPTIDE1,PEPTIDE1,4:R3-12:R3$$$V2.0) | > 10 µM | – | – | – |
| CC(C)[C@@H]1NC(=O)[C@@H](NC(=O)[C@H](Cc2ccc(O)cc2)NC(=O)[C@@H]2CCCN2C(=O)CCN)CSSC[C@@H](C(N)=O)NC(=O)[C@H](CO)NC(=O)[C@H](Cc2c[nH]c3ccccc23)NC(=O)[C@H](CO)NC(=O)CCNC(=O)[C@H](CCCCN)NC(=O)[C@H](Cc2ccc(O)cc2)NC1=O [βAla1-PY-Lys7-βAla8.am, βAPYCVYKβAEWEC-am] | 0.07 ± 0.017 µM | – | – | – |
| KYLPYWPVLSSL [KYL] | – | significantly dampened ALS pathogenesis | 5 µM | promote axon sprouting and recovery of limb function |
